Measured values from publication doi:10.1101/2025.09.28.679056.
These are yes or no findings as the source states them, for the method shown. In cells and extracts the contact can be indirect. Here binding means that the protein was enriched with, or labelled near, the bait; the list need not be complete.

Amino acid sequences for entries named in this document (tags omitted).
UniProt O96001: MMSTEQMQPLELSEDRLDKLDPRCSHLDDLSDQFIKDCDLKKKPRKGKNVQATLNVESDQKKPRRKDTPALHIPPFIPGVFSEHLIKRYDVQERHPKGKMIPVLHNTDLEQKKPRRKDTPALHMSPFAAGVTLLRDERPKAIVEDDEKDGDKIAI

Molecular target: PPP1R17 tagged to GFP (UniProt O96001)
Test: affinity purification with mass spectrometry

binding: binds
B1: Ppp2r2d (protein, UniProt Q925E7 1-453)
chain: MAGAGGGGCPAGGNDFQWCFSQVKGAVDEDVAEADIISTVEFNYSGDLLATGDKGGRVVIFQREQENKGRAHSRGEYNVYSTFQSHEPEFDYLKSLEIEEKINKIRWLPQQNAAHFLLSTNDKTIKLWKISERDKRAEGYNLKDEDGRLRDPFRITALRVPILKPMDLMVEASPRRIFANAHTYHINSISVNSDHETYLSADDLRINLWHLEITDRSFNIVDIKPANMEELTEVITAAEFHPHQCNVFVYSSSKGTIRLCDMRSSALCDRHAKFFEEPEDPSSRSFFSEIISSISDVKFSHSGRYMMTRDYLSVKVWDLNMEGRPVETHQVHEYLRSKLCSLYENDCIFDKFECCWNGSDSAIMTGSYNNFFRMFDRNTRRDVTLEASRENSKPRASLKPRKVCTGGKRKKDEISVDSLDFNKKILHTAWHPMESIIAVAATNNLYIFQDKIN
